Results on 4 sequences are retold here after PMC12614216.

Data set [1] has as its target T1, OrfL (Streptococcus thermophilus ICESt3) (UniProt Q935T9).
T1 sequence (looked up, limits assumed): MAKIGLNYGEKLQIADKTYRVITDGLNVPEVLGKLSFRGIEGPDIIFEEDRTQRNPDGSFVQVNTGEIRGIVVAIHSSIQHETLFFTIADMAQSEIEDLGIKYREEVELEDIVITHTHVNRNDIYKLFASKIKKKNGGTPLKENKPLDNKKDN
In words: EMSA. The conditions noted are these: 0.02% PFA, 0.2 uM DNA, 0-12 uM protein, EMSA: 20 mM HEPES, 150 mM NaCl, 37 C 15 min, then 0.02% PFA 1 h 37 C (without PFA no notable shift on various unnamed ss/dsDNA substrates, data not shown), recombinant protein, protein details: 6xHis-TEV removed (TEV cleaved). (Mobility shift assays separate free from complexed probe on a gel.)

Data set [2] addresses OrfM (Streptococcus thermophilus ICESt3) (UniProt Q70CB0). In words: EMSA. The following applies: 0.02% PFA, 0.2 uM DNA, 0-12 uM protein, EMSA: 20 mM HEPES, 150 mM NaCl, 37 C 15 min, then 0.02% PFA 1 h 37 C (without PFA no notable shift on various unnamed ss/dsDNA substrates, data not shown), recombinant protein, protein details: 6xHis-TEV removed (TEV cleaved).
Data set [3] has as its system OrfL in OrfL-OrfM complex + OrfM in OrfL-OrfM complex. In words: EMSA. The following applies: 0.02% PFA, pre-formed 1:1 complex, EMSA: 20 mM HEPES, 150 mM NaCl, 37 C 15 min, then 0.02% PFA 1 h 37 C (without PFA no notable shift on various unnamed ss/dsDNA substrates, data not shown), recombinant protein.
For data set [4], the target named is T1, OrfL (Streptococcus thermophilus ICESt3). In words: switchSENSE. The conditions noted are these: no PFA; switchSENSE: 25 mM Tris-HCl pH 8.0, 100 mM NaCl, 25 C; recombinant protein; protein details: 6xHis-TEV removed (TEV cleaved).
The target in data set [5] is OrfM (Streptococcus thermophilus ICESt3) (UniProt Q70CB0). In words: switchSENSE. The conditions noted are these: no PFA; switchSENSE: 25 mM Tris-HCl pH 8.0, 100 mM NaCl, 25 C; recombinant protein; protein details: 6xHis-TEV removed (TEV cleaved).
[6] abbreviates: slightly higher affinity than dsDNA, label: 5' 6-FAM, single-stranded DNA.

The comparison behind a weaker result is the experiment's own reference, which may not be listed here. For some of these results: Tags and fusion partners may be left off the protein sequences shown. For some of these results: Construct, isoform or probe ends are uncertain for at least one entry. For some of these results: At least one verdict was read from the data and is not stated in words by the source.

As for “GAGACTTCAACCCCCGATTTCTAATAGGGGGGTTACATTTTCAAGATTTAGAAAGTGTGTCACTTTGGTCCAAAAAGTGTGTCACTTAGTCAAAAGGAG (double strand) [EMSA dsDNA (oriT)]”, the binding result in data set [1] (label: 5' 6-FAM on strand 1), in data set [2] (label: 5' 6-FAM on strand 1) and in data set [3] (label: 5' 6-FAM on strand 1) was “binds more weakly” in each case.
Regarding “GAGACTTCAACCCCCGATTTCTAATAGGGGGGTTACATTTTCAAGATTTAGAAAGTGTGTCACTTTGGTCCAAAAAGTGTGTCACTTAGTCAAAAGGAG [EMSA ssDNA (oriT)]”, the binding result in data set [1] (setting [6]), in data set [2] (setting [6]) and in data set [3] (setting [6]) was “binds more weakly” each time.
Regarding “GAGACTTCAACCCCCGATTTCTAATAGGGGGGTTACATTTTCAAGATTTAGAAAGTGTGTCACTTTGGTCCAAAAAGTGTGTCACTTAGTCAAAAGGAGATATATCAGCGTTCGATGCTTCCGACTAATCAGCCATATCAGCTTACGACTA / CTCCTTTTGACTAAGTGACACACTTTTTGGACCAAAGTGACACACTTTCTAAATCTTGAAAATGTAACCCCCCTATTAGAAATCGGGGGTTGAAGTCTC [dsDNA-overhang on nanolever]”, the binding result in data set [4] and in data set [5] was “binds more weakly” each time.
On to “GAGACTTCAACCCCCGATTTCTAATAGGGGGGTTACATTTTCAAGATTTAGAAAGTGTGTCACTTTGGTCCAAAAAGTGTGTCACTTAGTCAAAAGGAGATATATCAGCGTTCGATGCTTCCGACTAATCAGCCATATCAGCTTACGACTA [ssDNA-overhang on nanolever]”, for which the binding result in data set [4] and in data set [5] was “binds more weakly” in each case.
